Laboratory results: patent US20130131321A1, “LIGANDS FOR ANTIBODY AND Fc-FUSION PROTEIN PURIFICATION BY AFFINITY CHROMATOGRAPHY” (GRAFFINITY PHARMACEUTICALS GMBH, priority 2010, published 2013)

What was measured:
[1] = tested on: Bevacizumab spiked into host cell proteins; assay: Purification of antibody from cell culture supernatant, microtiter plate chromatography; design: species or system humanized; details: Bevacizumab 0.05 mg ml^−1 in HCP, 25 column volumes, elution sodium citrate pH 3.0
[2] = tested on: Bevacizumab spiked into host cell proteins; assay: Purification of antibody from cell culture supernatant, column chromatography; design: species or system humanized; details: Bevacizumab 0.05 mg ml^−1 in HCP, 100 column volumes, elution sodium citrate pH 3.0

COc1ccc(NC(=O)c2cc(-c3ccco3)n(C)n2)cc1C(=O)NCCCN [Ligand L1, 5-[5-(2-Furyl)-1-methylpyrazol-3-yl]carboxamido-2-methoxybenzoic acid N-(3-aminopropyl)amide] was tested, and the “Purity, Microtiter Plate Chromatography” value [1] was 74%, the “Yield, Microtiter Plate Chromatography” value [1] was 85% and the “Purity, Column Chromatography” value [2] was 83%. For the same compound, the “Yield, Column Chromatography” value [2] was 90%.
